Our source for the binding values is doi:10.1101/2024.09.13.612963 (bioRxiv, 2024).

By UniProt entry, the sequences of proteins in these tests, tags left out.
UniProt Q14204: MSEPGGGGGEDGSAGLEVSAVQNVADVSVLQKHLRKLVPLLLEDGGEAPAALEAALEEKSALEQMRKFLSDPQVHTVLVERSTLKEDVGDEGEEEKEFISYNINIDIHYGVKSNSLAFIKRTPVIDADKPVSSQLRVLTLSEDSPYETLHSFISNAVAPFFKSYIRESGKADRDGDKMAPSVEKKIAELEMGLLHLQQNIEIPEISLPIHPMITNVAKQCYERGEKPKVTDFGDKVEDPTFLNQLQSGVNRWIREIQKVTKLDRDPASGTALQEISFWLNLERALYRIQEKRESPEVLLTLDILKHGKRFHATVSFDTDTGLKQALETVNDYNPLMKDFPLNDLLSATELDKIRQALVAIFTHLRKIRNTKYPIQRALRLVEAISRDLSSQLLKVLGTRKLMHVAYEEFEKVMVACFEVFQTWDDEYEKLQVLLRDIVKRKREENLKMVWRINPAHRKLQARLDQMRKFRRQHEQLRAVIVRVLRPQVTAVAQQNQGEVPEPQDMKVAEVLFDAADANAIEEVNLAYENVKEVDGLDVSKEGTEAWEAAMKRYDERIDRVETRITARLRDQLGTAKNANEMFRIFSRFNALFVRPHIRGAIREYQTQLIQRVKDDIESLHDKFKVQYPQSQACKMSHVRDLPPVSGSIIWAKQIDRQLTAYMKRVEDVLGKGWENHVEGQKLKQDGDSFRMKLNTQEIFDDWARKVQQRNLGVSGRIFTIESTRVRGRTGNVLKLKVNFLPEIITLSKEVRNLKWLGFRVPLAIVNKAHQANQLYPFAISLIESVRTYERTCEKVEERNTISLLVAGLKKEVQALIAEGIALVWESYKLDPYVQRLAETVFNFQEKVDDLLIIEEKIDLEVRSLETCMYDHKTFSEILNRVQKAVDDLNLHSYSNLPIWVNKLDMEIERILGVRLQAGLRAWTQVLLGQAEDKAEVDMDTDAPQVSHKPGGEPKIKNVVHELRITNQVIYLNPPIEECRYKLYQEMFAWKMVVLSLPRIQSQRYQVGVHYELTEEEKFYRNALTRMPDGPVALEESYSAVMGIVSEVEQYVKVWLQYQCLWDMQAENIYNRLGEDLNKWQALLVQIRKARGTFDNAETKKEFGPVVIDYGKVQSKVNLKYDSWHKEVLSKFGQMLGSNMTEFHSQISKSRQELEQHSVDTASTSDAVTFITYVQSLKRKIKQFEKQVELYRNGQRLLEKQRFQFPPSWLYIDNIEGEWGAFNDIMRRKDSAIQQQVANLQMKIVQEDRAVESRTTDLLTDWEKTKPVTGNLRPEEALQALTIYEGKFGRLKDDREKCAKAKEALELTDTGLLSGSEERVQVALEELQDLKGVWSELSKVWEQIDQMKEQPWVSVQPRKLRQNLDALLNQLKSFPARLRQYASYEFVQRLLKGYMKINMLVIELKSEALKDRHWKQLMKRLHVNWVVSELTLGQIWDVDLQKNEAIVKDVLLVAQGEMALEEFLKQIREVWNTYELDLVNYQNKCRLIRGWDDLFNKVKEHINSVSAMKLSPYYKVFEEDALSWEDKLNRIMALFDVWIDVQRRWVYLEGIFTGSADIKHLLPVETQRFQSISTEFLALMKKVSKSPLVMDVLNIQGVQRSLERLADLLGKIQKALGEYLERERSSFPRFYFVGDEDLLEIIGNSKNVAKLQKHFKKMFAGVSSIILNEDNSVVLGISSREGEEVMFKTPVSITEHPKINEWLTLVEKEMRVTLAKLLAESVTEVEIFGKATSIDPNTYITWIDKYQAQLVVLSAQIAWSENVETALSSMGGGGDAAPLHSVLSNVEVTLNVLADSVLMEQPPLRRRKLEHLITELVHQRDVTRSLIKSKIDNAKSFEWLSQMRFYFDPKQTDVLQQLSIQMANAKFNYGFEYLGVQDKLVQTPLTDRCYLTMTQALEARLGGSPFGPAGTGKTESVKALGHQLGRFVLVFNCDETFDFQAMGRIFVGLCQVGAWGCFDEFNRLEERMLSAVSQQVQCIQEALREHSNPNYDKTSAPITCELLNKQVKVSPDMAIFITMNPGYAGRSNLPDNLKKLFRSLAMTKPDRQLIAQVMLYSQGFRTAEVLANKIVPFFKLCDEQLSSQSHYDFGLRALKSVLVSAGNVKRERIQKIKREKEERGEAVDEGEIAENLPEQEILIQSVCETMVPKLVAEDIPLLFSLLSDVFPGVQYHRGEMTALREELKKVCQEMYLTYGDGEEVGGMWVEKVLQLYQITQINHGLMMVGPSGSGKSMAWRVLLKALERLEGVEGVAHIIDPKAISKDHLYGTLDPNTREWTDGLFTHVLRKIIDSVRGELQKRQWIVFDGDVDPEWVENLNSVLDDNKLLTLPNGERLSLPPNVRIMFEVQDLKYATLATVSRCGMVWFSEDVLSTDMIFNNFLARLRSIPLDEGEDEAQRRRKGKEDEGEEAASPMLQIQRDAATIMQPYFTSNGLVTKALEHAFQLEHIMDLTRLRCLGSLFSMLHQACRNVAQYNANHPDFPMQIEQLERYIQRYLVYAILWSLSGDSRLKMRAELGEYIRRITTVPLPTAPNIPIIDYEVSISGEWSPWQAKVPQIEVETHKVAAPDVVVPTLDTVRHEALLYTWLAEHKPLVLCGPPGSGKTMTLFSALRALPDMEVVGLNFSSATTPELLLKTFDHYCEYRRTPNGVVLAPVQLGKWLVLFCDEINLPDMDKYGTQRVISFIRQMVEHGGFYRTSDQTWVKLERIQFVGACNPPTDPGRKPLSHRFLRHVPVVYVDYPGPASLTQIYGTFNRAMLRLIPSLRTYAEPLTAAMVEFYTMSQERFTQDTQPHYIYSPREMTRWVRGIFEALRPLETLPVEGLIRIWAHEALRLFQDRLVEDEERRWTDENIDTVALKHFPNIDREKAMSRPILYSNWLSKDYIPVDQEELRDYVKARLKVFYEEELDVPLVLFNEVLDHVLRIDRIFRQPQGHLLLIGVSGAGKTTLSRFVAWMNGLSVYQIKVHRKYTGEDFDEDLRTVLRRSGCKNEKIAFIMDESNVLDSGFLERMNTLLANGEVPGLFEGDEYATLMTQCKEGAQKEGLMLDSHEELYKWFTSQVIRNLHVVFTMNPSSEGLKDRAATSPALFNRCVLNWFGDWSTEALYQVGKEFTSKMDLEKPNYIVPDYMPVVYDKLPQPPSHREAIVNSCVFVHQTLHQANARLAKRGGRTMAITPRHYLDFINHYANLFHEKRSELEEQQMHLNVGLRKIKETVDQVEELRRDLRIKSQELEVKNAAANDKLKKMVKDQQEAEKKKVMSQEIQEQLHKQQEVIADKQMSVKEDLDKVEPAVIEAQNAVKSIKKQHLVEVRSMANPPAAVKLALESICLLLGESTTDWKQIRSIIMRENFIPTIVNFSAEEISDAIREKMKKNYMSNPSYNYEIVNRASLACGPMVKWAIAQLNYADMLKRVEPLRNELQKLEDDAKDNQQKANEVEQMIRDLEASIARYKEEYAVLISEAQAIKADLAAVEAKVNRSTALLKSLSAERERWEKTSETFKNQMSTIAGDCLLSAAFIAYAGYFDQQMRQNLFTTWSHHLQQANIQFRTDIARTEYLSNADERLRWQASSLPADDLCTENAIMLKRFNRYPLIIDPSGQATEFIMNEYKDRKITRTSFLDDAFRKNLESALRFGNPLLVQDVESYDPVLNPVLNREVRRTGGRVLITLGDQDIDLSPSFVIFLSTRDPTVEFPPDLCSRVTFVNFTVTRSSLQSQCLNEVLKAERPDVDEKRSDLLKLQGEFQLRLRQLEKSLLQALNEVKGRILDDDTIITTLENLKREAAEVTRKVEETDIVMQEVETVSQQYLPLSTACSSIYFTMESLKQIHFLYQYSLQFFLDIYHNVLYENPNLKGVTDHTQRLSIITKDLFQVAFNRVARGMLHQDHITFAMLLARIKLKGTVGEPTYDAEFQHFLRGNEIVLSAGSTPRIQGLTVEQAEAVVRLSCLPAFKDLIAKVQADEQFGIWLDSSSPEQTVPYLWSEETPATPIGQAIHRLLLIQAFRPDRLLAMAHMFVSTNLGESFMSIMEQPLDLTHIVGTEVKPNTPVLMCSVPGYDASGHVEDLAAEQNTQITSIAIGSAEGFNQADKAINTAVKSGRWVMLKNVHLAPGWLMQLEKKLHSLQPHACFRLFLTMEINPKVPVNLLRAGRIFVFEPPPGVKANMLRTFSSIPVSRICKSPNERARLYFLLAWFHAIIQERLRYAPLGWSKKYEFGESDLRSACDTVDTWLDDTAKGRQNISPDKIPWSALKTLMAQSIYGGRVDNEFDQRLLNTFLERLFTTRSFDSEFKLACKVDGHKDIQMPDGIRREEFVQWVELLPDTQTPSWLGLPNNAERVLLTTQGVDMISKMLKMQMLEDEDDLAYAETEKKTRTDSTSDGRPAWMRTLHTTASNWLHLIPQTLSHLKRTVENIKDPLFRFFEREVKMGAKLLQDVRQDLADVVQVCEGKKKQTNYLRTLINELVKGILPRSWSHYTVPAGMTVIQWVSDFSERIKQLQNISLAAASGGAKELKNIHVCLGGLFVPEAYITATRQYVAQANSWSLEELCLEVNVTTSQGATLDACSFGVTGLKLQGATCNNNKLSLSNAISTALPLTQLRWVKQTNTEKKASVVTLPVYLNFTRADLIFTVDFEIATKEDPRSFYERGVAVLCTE
UniProt P33176: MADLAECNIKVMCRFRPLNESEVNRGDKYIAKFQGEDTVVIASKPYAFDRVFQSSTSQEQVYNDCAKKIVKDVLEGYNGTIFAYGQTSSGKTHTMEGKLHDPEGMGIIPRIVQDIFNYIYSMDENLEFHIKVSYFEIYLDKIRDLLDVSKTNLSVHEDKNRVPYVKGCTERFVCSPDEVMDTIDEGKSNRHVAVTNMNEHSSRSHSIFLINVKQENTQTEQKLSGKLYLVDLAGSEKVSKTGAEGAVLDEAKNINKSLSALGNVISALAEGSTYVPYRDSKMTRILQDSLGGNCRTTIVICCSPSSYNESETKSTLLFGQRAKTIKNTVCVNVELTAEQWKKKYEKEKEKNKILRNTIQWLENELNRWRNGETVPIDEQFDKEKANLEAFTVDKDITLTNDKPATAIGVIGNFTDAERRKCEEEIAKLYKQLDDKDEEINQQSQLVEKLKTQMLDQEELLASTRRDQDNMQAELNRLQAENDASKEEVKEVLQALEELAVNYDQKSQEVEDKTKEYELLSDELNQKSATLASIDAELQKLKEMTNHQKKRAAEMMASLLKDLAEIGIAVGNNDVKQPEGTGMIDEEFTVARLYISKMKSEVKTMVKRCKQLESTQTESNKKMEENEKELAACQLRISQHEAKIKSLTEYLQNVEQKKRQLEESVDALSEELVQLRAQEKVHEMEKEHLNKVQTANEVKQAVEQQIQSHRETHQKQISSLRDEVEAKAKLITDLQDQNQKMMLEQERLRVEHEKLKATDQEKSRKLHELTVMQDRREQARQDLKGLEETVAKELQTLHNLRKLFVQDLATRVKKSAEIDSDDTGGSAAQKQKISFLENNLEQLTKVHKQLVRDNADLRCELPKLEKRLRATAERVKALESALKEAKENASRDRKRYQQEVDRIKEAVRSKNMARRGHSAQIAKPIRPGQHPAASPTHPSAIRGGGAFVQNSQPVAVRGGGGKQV

Assay in all cases: co-IP
Test [1] addresses T1, TRAK2-mScarlet A129V/A130V (CC1-box mutant) (human) (UniProt O60296).
T1 sequence: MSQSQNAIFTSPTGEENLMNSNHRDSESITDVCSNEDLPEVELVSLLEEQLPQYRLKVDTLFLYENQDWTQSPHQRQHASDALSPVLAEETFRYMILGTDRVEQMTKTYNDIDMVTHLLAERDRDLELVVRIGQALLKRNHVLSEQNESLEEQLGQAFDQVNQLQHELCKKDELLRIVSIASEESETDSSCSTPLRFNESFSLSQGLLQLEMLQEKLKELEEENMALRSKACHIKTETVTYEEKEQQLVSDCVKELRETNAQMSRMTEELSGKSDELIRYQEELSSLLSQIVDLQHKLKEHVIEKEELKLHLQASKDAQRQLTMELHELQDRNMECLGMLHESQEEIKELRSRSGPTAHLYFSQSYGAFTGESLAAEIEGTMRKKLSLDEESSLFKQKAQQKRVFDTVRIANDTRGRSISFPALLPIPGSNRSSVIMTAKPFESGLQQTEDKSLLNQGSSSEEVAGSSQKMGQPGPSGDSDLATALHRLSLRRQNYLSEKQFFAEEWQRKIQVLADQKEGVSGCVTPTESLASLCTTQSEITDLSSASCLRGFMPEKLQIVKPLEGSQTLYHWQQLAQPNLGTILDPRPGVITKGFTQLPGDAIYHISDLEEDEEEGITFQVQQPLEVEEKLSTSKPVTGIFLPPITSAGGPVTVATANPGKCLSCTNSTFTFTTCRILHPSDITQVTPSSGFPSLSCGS

The target in test [2] is T2, TRAK2-mScarlet (wild type, truncated before the mitochondrial binding domain) (human) (UniProt O60296).
T2 sequence: T1 sequence with V129A, V130A

Test [3] deals with T3, TRAK1-mScarlet (wild type, truncated before the mitochondrial binding domain) (human) (UniProt Q9UPV9).
T3 sequence: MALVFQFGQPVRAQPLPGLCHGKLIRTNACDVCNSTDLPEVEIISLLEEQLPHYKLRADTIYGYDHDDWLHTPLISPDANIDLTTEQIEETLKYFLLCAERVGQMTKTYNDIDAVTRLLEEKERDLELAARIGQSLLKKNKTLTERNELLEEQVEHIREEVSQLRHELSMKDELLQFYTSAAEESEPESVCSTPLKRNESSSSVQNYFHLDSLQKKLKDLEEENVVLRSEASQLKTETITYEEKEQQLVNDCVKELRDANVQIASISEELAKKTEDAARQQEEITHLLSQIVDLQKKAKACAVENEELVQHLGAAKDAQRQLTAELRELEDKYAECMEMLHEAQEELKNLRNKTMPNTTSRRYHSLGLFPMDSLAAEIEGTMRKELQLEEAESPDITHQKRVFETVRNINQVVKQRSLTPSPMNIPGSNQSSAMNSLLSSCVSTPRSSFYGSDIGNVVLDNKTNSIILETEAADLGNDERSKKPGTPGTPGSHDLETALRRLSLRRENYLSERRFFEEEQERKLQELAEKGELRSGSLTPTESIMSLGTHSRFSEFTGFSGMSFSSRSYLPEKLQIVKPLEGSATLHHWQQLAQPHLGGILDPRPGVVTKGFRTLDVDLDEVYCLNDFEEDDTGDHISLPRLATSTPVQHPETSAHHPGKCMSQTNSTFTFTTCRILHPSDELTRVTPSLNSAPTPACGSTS

The target in test [4] is T4, TRAK1-mScarlet E242R (human) (UniProt Q9UPV9).
T4 sequence: T3 sequence with E242R

Test [5] deals with T5, Miro1-sfGFP-FLAG-I3-01 synthetic cargo (human) (UniProt Q8IXI2).
T5 sequence: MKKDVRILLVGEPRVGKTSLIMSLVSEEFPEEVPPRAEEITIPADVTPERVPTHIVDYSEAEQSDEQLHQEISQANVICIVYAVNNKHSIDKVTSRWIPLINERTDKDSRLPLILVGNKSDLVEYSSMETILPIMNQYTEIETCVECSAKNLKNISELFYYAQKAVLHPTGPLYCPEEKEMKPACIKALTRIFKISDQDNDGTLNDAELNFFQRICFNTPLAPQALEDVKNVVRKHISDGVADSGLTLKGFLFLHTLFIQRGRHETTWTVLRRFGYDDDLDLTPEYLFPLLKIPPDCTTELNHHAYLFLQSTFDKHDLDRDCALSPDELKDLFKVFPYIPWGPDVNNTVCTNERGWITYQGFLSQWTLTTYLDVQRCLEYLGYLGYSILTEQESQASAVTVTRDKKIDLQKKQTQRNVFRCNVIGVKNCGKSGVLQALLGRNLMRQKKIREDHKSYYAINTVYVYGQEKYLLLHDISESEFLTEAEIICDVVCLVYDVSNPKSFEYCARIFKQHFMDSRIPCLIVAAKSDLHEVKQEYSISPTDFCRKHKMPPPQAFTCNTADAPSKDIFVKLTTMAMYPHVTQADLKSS

Substitutions are numbered along the chain they refer to. No constants are given. Whether binding was seen depends on the method and setting. Binding seen in cells or lysates may run through a third protein. Some binding calls cover weakened binding; strength is not graded here. For some of these results: Where a sequence is shown, tags or fusion partners need not be part of it.

“dynactin subunit p150 (from UniProt Q14203-1 1-1278)”: the binding result in test [1], in test [2] and in test [3] was “binds” each time.

For the molecule “dynein heavy chain (DHC1) (from UniProt Q14204 1-4646)”, the binding result in test [1] and in test [2] was “binds” in each case.

Consider “kinesin-1 (KIF5B) (from UniProt P33176 1-963)”, for which the binding result in test [4] is listed as “binds”.

B1: TRAK2-mScarlet (wild type, truncated before the mitochondrial binding domain) (domain or fragment, UniProt O60296 1-700)
chain: T1 sequence with V129A, V130A
Turning to B1, the binding result in test [5] is recorded as “binds”.
